The comparison behind a weaker result is the experiment's own reference, which may not be listed here. Tags and fusion partners may be left off the protein sequences shown.
Target: T1, T-DBD (Brachyury T-domain) (mouse) (UniProt P20293)
T1 sequence (looked up): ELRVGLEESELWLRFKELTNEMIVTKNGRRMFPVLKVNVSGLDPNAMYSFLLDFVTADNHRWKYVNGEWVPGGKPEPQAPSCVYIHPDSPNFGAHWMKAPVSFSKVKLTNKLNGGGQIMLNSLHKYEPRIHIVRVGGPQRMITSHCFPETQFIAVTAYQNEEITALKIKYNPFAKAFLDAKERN
Test: EMSA
Conditions: shifted less effectively, Kd not measurable, protein concentration limiting; 25 mM HEPES pH 7.4, 75 mM NaCl, 1 mM DTT, 0.25 mM EDTA, 0.1% NP-40, 1 mM MgCl2, 10% glycerol, 10 µg/ml BSA, 0.1 mg/ml poly dI-dC; room temperature, 20 min; recombinant protein; residues 41-224; protein details: N-terminal His (pET151/D-TOPO), removed by TEV; label: 32P 5' end label

Does “TCACTGTAGGTGTTGCTGTCCTGT (double strand) [Dll1 BS1]” bind?
Result: binds more weakly

— paper PMC7473639, “Functionally distinct roles for T and Tbx6 during mouse development”
